12 compounds from PubChem BioAssay AID330 (DTP/NCI, 2004) can be followed below.

The assay relates to P388 leukemia ip, CD2F1 mice, survival T/C. Description: NCI In Vivo Anticancer Drug Screen. Data for tumor model P388 Leukemia (intraperitoneal) in CD2F1 (CDF1) mice. The conditions noted are these: T/C endpoint: median survival time, higher T/C = longer survival.
Setting [1] is: dose: 50.0 mg/kg/injection, schedule: Q01DX005 (ip), vehicle: Klucel (hydroxypropylcellulose) (HPC).
Where [2] appears, read: dose: 50.0 mg/kg/injection, schedule: Q04DX003 (ip), vehicle: Klucel (hydroxypropylcellulose) (HPC).
The mark [3] stands for this setting: dose: 100.0 mg/kg/injection, schedule: Q01DX005 (ip), vehicle: Klucel (hydroxypropylcellulose) (HPC).
The mark [4] stands for this setting: dose: 100.0 mg/kg/injection, schedule: Q04DX003 (ip), vehicle: Klucel (hydroxypropylcellulose) (HPC).
Where [5] appears, read: dose: 200.0 mg/kg/injection, schedule: Q01DX009 (ip), vehicle: saline with Tween-80.
The mark [6] stands for this setting: dose: 200.0 mg/kg/injection, schedule: Q04DX002 (ip), vehicle: Klucel (hydroxypropylcellulose) (HPC).
Where [7] appears, read: dose: 200.0 mg/kg/injection, schedule: Q04DX003 (ip), vehicle: Klucel (hydroxypropylcellulose) (HPC).
Setting [8] is: dose: 400.0 mg/kg/injection, schedule: Q01DX009 (ip), vehicle: Klucel (hydroxypropylcellulose) (HPC).
[9] abbreviates: dose: 400.0 mg/kg/injection, schedule: Q04DX003 (ip), vehicle: Klucel (hydroxypropylcellulose) (HPC).
Where [10] appears, read: dose: 200.0 mg/kg/injection, schedule: Q01DX005 (ip), vehicle: saline with Tween-80.

The list shows only some results of the screen, not a fair sample: it gathers tests that were run many times, whatever their T/C, doses with no T/C, and many T/C values between a quarter and a half above the control. Other doses and runs of a compound stand elsewhere. T/C is the treated group as % of the vehicle group. Some entries give survivors of the animals treated and no T/C: the source holds a T/C of zero for them, seemingly a mark for toxic or unscored doses. Some survivor counts are full or nearly so, which does not show that the dose was tolerated: survival well below the control is almost never listed, so the zero probably covers shortened survival too. Survivors were counted at the toxicity check, usually on the fifth day, unless a day is given; later deaths do not show. Schedules are NCI's codes, taken here to give the interval after Q, in days (D) or hours (H), and the number of doses after X. Some entries were tested several times; the results are listed from low to high. Where survival is the endpoint, this PubChem deposit counts one and a half times the control or more as active, and values a quarter to a half above the control carry no call in these data; other NCI protocols may use other cut-offs. Some T/C values carry the count of animals alive at the toxicity check (mostly the fifth day); without a count, all were alive then. Signs of the kind (2×) stand for listed records that agree.

With `Nc1n[nH]c(N)n1`, the T/C (dose: 50.0 mg/kg/injection, schedule: Q01DX001 (ip), vehicle: Klucel (hydroxypropylcellulose) (HPC)) was 87, 92, 95, 98, 100 (5×), 101 (4×), 102, 103 (2×), 104, 104 [5 of 6 alive], 105 (3×), 106 (4×), 109 (3×), 110, 120 (2×), 130 % of control; the T/C under setting [1] is 89 [2 of 3 alive], 92, 95, 96 (2×), 97 (3×), 98 (3×), 99 (2×), 100, 101 (2×), 102 (2×), 103 (2×), 104, 105 (3×), 106 (3×), 107 (2×), 108, 112 (2×), 116, 130, 131 % of control; the T/C (dose: 50.0 mg/kg/injection, schedule: Q01DX009 (ip), vehicle: Klucel (hydroxypropylcellulose) (HPC)) was 90, 93, 95, 96, 98 (2×), 99 (4×), 100 (3×), 101 (3×), 102 (3×), 104 (3×), 105, 106, 107, 109, 110 (3×), 112, 116, 117, 119, 122 % of control (2×); the T/C (dose: 50.0 mg/kg/injection, schedule: Q04DX002 (ip), vehicle: Klucel (hydroxypropylcellulose) (HPC)) was 88, 89, 90, 93, 95, 98, 99 (4×), 100 (6×), 101, 102 (3×), 103, 104 (3×), 105, 106 (4×), 107, 108 (2×), 112 (2×), 115 % of control; the T/C under setting [2] is 88, 90, 91, 94 (2×), 96, 99, 100 (4×), 100 [5 of 6 alive], 101 (2×), 102 (3×), 104 (4×), 105 (4×), 106 (2×), 108, 110 (3×), 113, 116, 117 % of control; the T/C (dose: 100.0 mg/kg/injection, schedule: Q01DX001 (ip), vehicle: Klucel (hydroxypropylcellulose) (HPC)) was 92, 98, 99, 100 (2×), 100 [2 of 3 alive], 101 (2×), 102 (5×), 103 (2×), 104 (2×), 105 (3×), 106 (4×), 107, 108 (2×), 109 (2×), 110, 110 [5 of 6 alive], 115 % of control. In addition, the T/C under setting [3] is 96, 97 [2 of 3 alive], 98, 99, 100, 101 (3×), 102 (2×), 103, 105 (4×), 106, 107, 108, 109 (3×), 110 (2×), 111 (2×), 112 (2×), 112 [2 of 3 alive], 113, 114 (2×), 117, 124 [4 of 6 alive], 129 % of control; the T/C (dose: 100.0 mg/kg/injection, schedule: Q01DX009 (ip), vehicle: Klucel (hydroxypropylcellulose) (HPC)) is 93, 96, 98 (2×), 100 (3×), 101, 102 (3×), 102 [2 of 2 alive], 103 (3×), 104, 105, 107 (3×), 108 (2×), 109 (2×), 112 (2×), 115, 116, 119 (2×), 121, 122 (2×), 128, 133 % of control; the T/C (dose: 100.0 mg/kg/injection, schedule: Q04DX002 (ip), vehicle: Klucel (hydroxypropylcellulose) (HPC)) was 91, 95, 97, 98, 99, 100 (4×), 101 (2×), 102, 103 (2×), 104, 105, 106 (3×), 107 (7×), 108 (3×), 109, 110, 111, 116, 120, 129 % of control; the T/C under setting [4] was 90, 94, 96, 99 (4×), 100 (4×), 102, 103, 104 (2×), 105 (3×), 106 (2×), 106 [5 of 6 alive], 108, 109 (2×), 110, 111 (2×), 111 [5 of 6 alive], 112, 113, 115, 117 % of control (2×); the T/C (dose: 200.0 mg/kg/injection, schedule: Q01DX001 (ip), vehicle: Klucel (hydroxypropylcellulose) (HPC)) was 87, 100 (3×), 101 (2×), 102, 103 (3×), 104 (4×), 105 (2×), 106 (3×), 107, 109 (3×), 110, 112, 113, 114 (2×), 115, 117, 128, 140 % of control; the T/C (dose: 200.0 mg/kg/injection, schedule: Q01DX005 (ip), vehicle: Klucel (hydroxypropylcellulose) (HPC)) is 95 [5 of 6 alive], 97, 101 [4 of 6 alive], 102 (2×), 105, 107, 108, 109, 110, 111, 112 (2×), 113, 114 (2×), 115 (3×), 116 (2×), 118 (2×), 119, 120 (3×), 121, 122 (2×), 125, 127, 128 [5 of 6 alive], 129, 144, 163 % of control. Besides, the T/C was 95 [2 of 3 alive], 100 (2×), 102, 103, 104, 105 (2×), 106, 107, 108 (2×), 110 (2×), 111 (2×), 112, 113, 114, 116 [5 of 6 alive], 117, 118, 119 (2×), 120 (2×), 124, 127, 129, 130 (2×), 131, 132, 133, 138 % of control (dose: 200.0 mg/kg/injection, schedule: Q01DX009 (ip), vehicle: Klucel (hydroxypropylcellulose) (HPC)); 127 % of control under setting [5]; 94, 95 (3×), 98, 99, 100, 101 (2×), 103 (2×), 104 (5×), 105, 106, 107 (3×), 108 (3×), 109 (4×), 110, 111 (2×), 112, 116, 119 % of control under setting [6]; 91, 93, 94, 95, 97 (3×), 99, 100, 101 (2×), 103 (2×), 104 (3×), 105 (4×), 106 (2×), 107, 108 (2×), 109, 111 (2×), 112 (2×), 114, 116, 117, 120, 129 % of control under setting [7]; 89, 99, 100 (4×), 101 (2×), 103, 104, 105 (2×), 106 (2×), 107 (2×), 109 (5×), 110 (2×), 111, 112, 115, 116, 118, 119, 120 % of control (3×) (dose: 400.0 mg/kg/injection, schedule: Q01DX001 (ip), vehicle: Klucel (hydroxypropylcellulose) (HPC)); 101, 104 [5 of 6 alive], 107, 109 (2×), 110 [5 of 6 alive], 111, 112 (2×), 113, 114, 115, 115 [2 of 3 alive], 116, 116 [5 of 6 alive], 117 [2 of 3 alive], 120 (3×), 121, 122 (3×), 125 (2×), 127, 128 [5 of 6 alive], 129, 131 (3×), 132 (4×), 143 % of control (dose: 400.0 mg/kg/injection, schedule: Q01DX005 (ip), vehicle: Klucel (hydroxypropylcellulose) (HPC)). Further, the T/C runs as follows: under setting [8], 99 [4 of 6 alive], 102, 105, 114, 118, 119, 122 (2×), 123, 124 (2×), 125 (2×), 125 [5 of 6 alive], 126, 127, 128, 129, 130 (2×), 131 (4×), 135 (2×), 137 (2×), 138, 143, 144 (2×), 151, 152, 158 % of control; (dose: 400.0 mg/kg/injection, schedule: Q01DX009 (ip), vehicle: saline with Tween-80) 140 % of control; (dose: 400.0 mg/kg/injection, schedule: Q04DX002 (ip), vehicle: Klucel (hydroxypropylcellulose) (HPC)) 95, 97, 100 (3×), 101 (4×), 102, 103 (4×), 105 (2×), 107 (3×), 108 (2×), 109 (4×), 111 (3×), 112 (2×), 113, 114, 115, 118, 122 % of control; under setting [9], 87, 96 [2 of 3 alive], 97, 98, 100 (2×), 101, 102, 103, 104 (2×), 105 (5×), 108 (2×), 109, 110 (3×), 111, 112 (2×), 113 (2×), 115, 116, 117 (2×), 120 (2×), 123 % of control (2×). For the same compound, the survivor count reads like this: under setting [1], 5 of 6; under setting [2], 5 of 6, 3 of 3, 6 of 6; under setting [3], 2 of 3 and 6 of 6; under setting [4], 2 of 3, 3 of 3, 6 of 6; under setting [6], 3 of 3; under setting [7], 3 of 3 and 6 of 6. Further, the survivor count under setting [9] was 3 of 3 and 6 of 6.

For `Cc1nccnc1NN=O`, the T/C was 128 and 130 % of control (dose: 25.0 mg/kg/injection, schedule: Q01DX009 (ip), vehicle: water); 137 and 142 % of control [5 of 6 alive] (dose: 50.0 mg/kg/injection, schedule: Q01DX009 (ip), vehicle: water).

For `c1cc2sc3ccc(OCCCN4CCCCC4)cc3c2cc1OCCCN1CCCCC1`, the survivor count (dose: 50.0 mg/kg/injection, schedule: Q01DX009 (ip), vehicle: saline with Tween-80) is given as 1 of 6; the survivor count (dose: 100.0 mg/kg/injection, schedule: Q01DX009 (ip), vehicle: saline with Tween-80) is reported as 0 of 6; the survivor count under setting [5] is 0 of 6.

In the case of `CCCCN(C)N=Nc1c(C(N)=O)n[nH]c1C`, the T/C was 140 % of control (dose: 66.0 mg/kg/injection, schedule: Q04DX003 (ip), vehicle: saline with Tween-80); 136 % of control (dose: 100.0 mg/kg/injection, schedule: Q04DX003 (ip), vehicle: saline with Tween-80); 127 % of control (dose: 150.0 mg/kg/injection, schedule: Q04DX003 (ip), vehicle: saline with Tween-80). For the same compound, the survivor count (dose: 400.0 mg/kg/injection, schedule: Q04DX003 (ip), vehicle: saline with Tween-80) was 1 of 6.

On to `N#CC(/C=C/c1ccccc1)(NO)Nc1cccc(Cl)c1` (centres undefined), for which the survivor count (dose: 240.0 mg/kg/injection, schedule: Q01DX005 (ip), vehicle: saline with Tween-80) was 1 of 6.

`COc1cc2oc3c(C)c(=O)cc4oc(-c5ccccc5)cc(c2c2c1CCC(c1ccccc1)O2)c43` (centres undefined): for the setting “dose: 14.0 mg/kg/injection, schedule: Q01DX005 (ip), vehicle: Klucel (hydroxypropylcellulose) (HPC)”, the survivor count is listed as 6 of 6.

Consider `COC(=O)c1[nH]c(=O)c(C#N)c(C(=O)OC)c1C(=O)c1ccncc1`, for which the survivor count under setting [10] is 3 of 6.

Take `O=C(Nc1cccc2c1C(=O)c1cccc(Nc3cccc4c3C(=O)c3cccc(NC(=O)c5ccccc5)c3C4=O)c1C2=O)c1ccccc1`: the survivor count under setting [10] is given as 5 of 5.

Consider `Brc1ncc2[nH]cnc2n1`, for which the survivor count under setting [10] is 4 of 6.

For the compound `CNC(C)Cc1ccccc1` (centres undefined) (tested in a mixture with another compound), the survivor count reads like this: (dose: 100.0 mg/kg/injection, schedule: Q01DX005 (ip), vehicle: saline with Tween-80) 1 of 6; under setting [10], 0 of 6.

On to `CN=NN(C)C(=O)NC`, for which the T/C (dose: 50.0 mg/kg/injection, schedule: Q01DX005 (ip), vehicle: saline) was 137 and 144 % of control. The survivor count (dose: 100.0 mg/kg/injection, schedule: Q01DX005 (ip), vehicle: saline) is 6 of 6 and the survivor count (dose: 200.0 mg/kg/injection, schedule: Q01DX005 (ip), vehicle: saline) is 3 of 6.

Turning to `N#CCCSC(=S)N1CCCCC1`, the survivor count under setting [8] was 1 of 6.
